Results of single-concentration screens

Amino acid sequences for entries named in this document (tags omitted).
UniProt P9WFT3, whole entry: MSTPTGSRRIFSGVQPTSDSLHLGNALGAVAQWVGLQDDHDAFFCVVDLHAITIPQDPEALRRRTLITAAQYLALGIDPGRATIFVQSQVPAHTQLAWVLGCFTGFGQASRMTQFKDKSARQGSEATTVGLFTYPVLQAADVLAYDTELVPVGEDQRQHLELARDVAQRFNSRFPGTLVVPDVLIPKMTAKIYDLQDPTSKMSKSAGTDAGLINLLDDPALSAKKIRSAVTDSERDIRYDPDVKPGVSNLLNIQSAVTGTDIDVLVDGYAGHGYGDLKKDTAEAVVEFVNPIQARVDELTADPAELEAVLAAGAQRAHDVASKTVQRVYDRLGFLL
UniProt P9WNZ1, whole entry: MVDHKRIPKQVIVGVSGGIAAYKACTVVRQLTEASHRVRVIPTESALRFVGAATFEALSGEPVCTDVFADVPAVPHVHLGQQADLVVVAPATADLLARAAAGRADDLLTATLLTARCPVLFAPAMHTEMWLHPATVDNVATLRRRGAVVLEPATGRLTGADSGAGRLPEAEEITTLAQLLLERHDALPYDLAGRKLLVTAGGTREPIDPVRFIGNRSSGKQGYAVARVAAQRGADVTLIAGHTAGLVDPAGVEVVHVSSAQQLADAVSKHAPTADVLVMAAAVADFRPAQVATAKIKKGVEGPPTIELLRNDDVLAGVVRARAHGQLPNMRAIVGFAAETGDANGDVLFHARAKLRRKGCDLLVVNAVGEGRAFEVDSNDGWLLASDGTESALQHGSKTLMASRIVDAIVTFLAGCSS
UniProt P9WPC5, whole entry: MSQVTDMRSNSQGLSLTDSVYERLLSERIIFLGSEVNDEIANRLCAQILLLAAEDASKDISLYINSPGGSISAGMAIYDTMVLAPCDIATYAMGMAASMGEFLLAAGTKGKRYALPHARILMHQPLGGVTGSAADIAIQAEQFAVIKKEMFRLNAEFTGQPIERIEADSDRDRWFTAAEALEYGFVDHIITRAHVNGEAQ
UniProt P9WPC3, whole entry partner: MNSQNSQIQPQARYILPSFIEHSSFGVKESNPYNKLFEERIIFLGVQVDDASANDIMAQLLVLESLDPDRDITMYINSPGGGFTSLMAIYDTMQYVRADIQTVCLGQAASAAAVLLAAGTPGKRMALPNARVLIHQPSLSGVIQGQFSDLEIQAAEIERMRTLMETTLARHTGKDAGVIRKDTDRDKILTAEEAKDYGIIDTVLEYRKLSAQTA

A: 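Enzyme assay of tryptophanyl-tRNA synthetase; the read-out is not stated. Target: Tryptophan-tRNA ligase, Mycobacterium tuberculosis (UniProt P9WFT3). Tested at 10 µM. Higher most likely means stronger inhibition; the record gives no direction and few retests gave an IC50. Of about 65,000 compounds tested this way, about 64 (0.098%) reached 50% or more in at least one test.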
B: 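Coenzyme A biosynthesis protein CoaBC, Mycobacterium tuberculosis (UniProt P9WNZ1). Enzyme assay of CoaBC with a phosphate dye (Biomol Green) read at 650 nm. Compounds at 30 µM. Higher reads as stronger inhibition, judged from the few compounds that gave an IC50. Most strong results did not repeat in a second test. About 67,000 compounds were tested under these conditions; 0.06% (about 40) showed 50% or more at least once.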
C: 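ClpP1P2, Mycobacterium tuberculosis (UniProt P9WPC5 and UniProt P9WPC3). Protease assay of ClpP1P2, read by the AMC dye that it sets free. Concentration: 50 µM. Direction is inferred from only a few compounds that gave an IC50; most scored high, so higher reads as stronger inhibition. Most other retested compounds had strongly negative values. Of about 69,000 compounds tested this way, about 10 (0.015%) reached 50% or more in at least one test.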

Values are the deposited “Percent Effect”, in %.
The controls that fix the scale are not given in the record; negative values are as filed.
Compounds were drawn at random from those tested, without regard to their results.
A dash means the value is not listed here; it may have been measured.

| # | structure | A | B | C |
|---|---|---|---|---|
| 1 | `c1cncc(COCc2nnn3c2CN(Cc2ccsc2)CC3)c1` | -0.8167 | 0.4938 | -14.52 |
| 2 | `CSCc1nc(CNC(=O)c2cnn(C(C)C)c2)cs1` | -6.727 | -0.7246 | 6.823 |
| 3 | `CCC(Nc1cccc(OC)c1)C(=O)NCc1nc(C)cc(=O)[nH]1` (stereo not drawn) | -0.4881 | -0.5981 | -6.913 |
| 4 | `N#CCCCn1nnnc1Cc1ccc(Br)cc1` | 1.514 | - | -0.4118 |
| 5 | `Cc1nn(C)c(C)c1C1CCCN1c1ncnc2sccc12` (stereo not drawn) | -2.969 | 4.132 | -0.2778 |
| 6 | `O=C(NC1(c2nnn(Cc3ccncc3)n2)CCCC1)c1ccccc1` | -1.421 | -12.05 | -9.209 |
| 7 | `CC1CCN(CCNC(=O)c2cncnc2C(C)C)CC1` | -3.412 | -6.329 | -13.25 |
| 8 | `COc1c[nH]c(C(=O)Nc2nc(C(C)(C)C)cs2)cc1=O` | -5.252 | 1.01 | -6.301 |
| 9 | `CN1CCC(c2cc(C(F)(F)F)n3ccnc3n2)CC1` | - | 1.699 | -47.35 |
| 10 | `CC(C)CN1CC[C@@H]2[C@@H]1CCN2C(=O)N(C)C` | -0.4933 | 1.057 | 0.8688 |
| 11 | `Cc1nnc2n1CCN(Cc1nc(-c3ccoc3)no1)C2` | 6.417 | -1.316 | -18.28 |
| 12 | `Cc1ccc(OCC(=O)NS(=O)(=O)c2cccnc2)cc1C` | -2.673 | 1.33 | 28.69 |
| 13 | `COc1cccc(CC(=O)N2CC[C@H]3[C@@H]2CCC(=O)N3C)c1` | -0.4933 | -4.44 | -1.256 |
| 14 | `O=C1[C@H]2CN(c3ncccn3)C[C@H]2CN1Cc1ccncc1` | 0.1876 | -5.176 | -5.314 |
| 15 | `Cc1n[nH]c(C2CN(C(=O)CCc3cscn3)CCO2)n1` (stereo not drawn) | -8.112 | 0 | -23.16 |
| 16 | `N#Cc1cc(F)c(NCCc2ccc(F)cc2)c(F)c1` | -2.886 | -14.29 | 3.298 |
| 17 | `CCOc1ncccc1NC(=O)NC1CCN(S(C)(=O)=O)CC1` | 1.834 | -1.318 | 5.86 |
| 18 | `Cn1cnnc1C1CCCN(C(=O)c2cc(Cl)c3c(c2)OCO3)C1` (stereo not drawn) | -0.08446 | 3.259 | -1.793 |
| 19 | `O=C(Nc1cccnn1)NC(CCCO)c1ccccc1` (stereo not drawn) | -2.079 | -2.926 | -10.54 |
| 20 | `Cc1cncc(C(=O)N2CCO[C@H]3[C@H](Oc4ccccn4)CC[C@@H]32)c1` | 2.654 | 4.821 | -7.411 |
| 21 | `CNC(=O)CN(C)CC1(c2ccc(Br)cc2)CC1` | 4.953 | -7.514 | -4.125 |
| 22 | `Cc1nccn1-c1ccc(C(C)NCCc2ccccn2)cc1` (stereo not drawn) | 0.7009 | 0.3165 | 8.053 |
| 23 | `Cc1cccc(CN2C(=O)CC[C@@H]3[C@H]2CCN3C(=O)c2ccsc2)n1` | -8.642 | -3.553 | 2.587 |
| 24 | `CC(C)Nc1nc2c(c(NC3CC3)n1)CN(C(=O)c1ccncc1)CC2` | 10.17 | - | 2.632 |
| 25 | `Cc1ccc(CN2CC[C@H]3CO[C@H](CN4CCCC4)[C@H]3C2)o1` | -5.315 | 4.433 | -10.21 |
| 26 | `CS(=O)(=O)c1snnc1C1CCCN(Cc2ccncc2)C1` (stereo not drawn) | - | 1.471 | 3.759 |
| 27 | `Fc1cccc(-c2nnn3c2COC(CNc2ncccn2)C3)c1` (stereo not drawn) | 4.018 | -1.854 | 3.969 |
| 28 | `Cc1ccc(-c2noc(Cn3nc(C(N)=O)ccc3=O)n2)cc1` | 1.639 | -3.617 | -16.76 |
| 29 | `CC(C)CCn1ccc(NC2CCSC2)n1` (stereo not drawn) | -0.6353 | 10.32 | -2.099 |
| 30 | `Cc1cnc2n(c1=O)C(CC(=O)NCc1cccnc1)CS2` (stereo not drawn) | -1.027 | 2.046 | 11.94 |
| 31 | `COC(=O)C(NC(=O)COC1CCCCC1)c1ccccc1` (stereo not drawn) | 1.12 | -0.7371 | 2.758 |
| 32 | `O=C(c1ccco1)N1CCCC12CCN(c1ncccn1)CC2` | -0.2907 | 6.049 | -9.466 |
| 33 | `O=C(c1ccnnc1)N1CCn2cc(CN3CCCCC3)nc2C1` | -1.564 | 5.75 | 12.48 |
| 34 | `COCCS(=O)(=O)c1ncc(CN(C)C)n1Cc1ccccc1` | 0.1501 | -3.329 | -11.39 |
| 35 | `CCOc1ccc(Cl)c(C(=O)N2CCN(CCO)CC2)n1` | -1.199 | 2.169 | -1.187 |
| 36 | `O=C1CC2(CCCCC2)C(=O)N1CC(O)COCc1ccccc1F` (stereo not drawn) | -1.2 | 7.692 | 3.002 |
| 37 | `O=C1CN(c2ccc(CNC(=O)NCC3CCOC3)cc2)CCN1` (stereo not drawn) | -4.771 | -2.968 | -4.864 |
| 38 | `COCCN1CCN(C(=O)NC2CC2)Cc2ccc(C)nc21` | -0.4882 | 11.07 | -10.68 |
| 39 | `COc1cc(C(=O)O)ccc1OCC(=O)NCCc1ccccc1` | 4.996 | 3.236 | 13.05 |
| 40 | `NC(=O)c1cc(C2CCCN(CCCOc3ccccc3)C2)n[nH]1` (stereo not drawn) | 2.598 | 0.5181 | -4.81 |
| 41 | `O=C(O)[C@@H]1CN(CCOCCO)C[C@H]1c1ccccc1` | 0.9046 | 17.79 | 1.436 |
| 42 | `CC(C)CN1CCC2(CC1)CC(NS(C)(=O)=O)c1ccccc1O2` (stereo not drawn) | -2.995 | -0.4938 | -12 |
| 43 | `CC(Oc1ccc2c(c1)OCO2)C(=O)Nc1ccon1` (stereo not drawn) | 1.72 | -0.1148 | 7.541 |
| 44 | `COCCN1CCc2ccc(=O)n(Cc3csc(C)n3)c2CC1` | -1.481 | 1.25 | -4.733 |
| 45 | `CN(C)[C@@H]1CCN(CC2CC2)[C@H]1Cc1cnn(C)c1` | -0.4691 | 1.5 | 10.19 |
| 46 | `CCC1CCC(NCCN2CCOCC2)CC1` (stereo not drawn) | 0.6606 | -0.7453 | -4.547 |
| 47 | `Cc1ccc(CNC(=O)N(C)Cc2ccc([S+](C)[O-])cc2)s1` (stereo not drawn) | -4.321 | 8.654 | -2.062 |
| 48 | `Cc1ccc(C(C(=O)N(C)CCc2cn[nH]c2)N(C)C)cc1` (stereo not drawn) | 0.6387 | 2.583 | -17.19 |
| 49 | `Cc1ccc(N(C)CC(O)COCc2ccccc2F)c(C)c1` (stereo not drawn) | -0.8227 | -13.49 | -6.649 |
| 50 | `CCOCc1cncc2c1CCN(S(=O)(=O)c1ccc(C)cc1)C2` | 1.904 | 7.5 | 1.441 |
| 51 | `CCCOCCCNc1nccc(-c2cn(C)nc2C)n1` | 0.7519 | -5.263 | -2.905 |
| 52 | `c1ccc(-c2nc(SCc3nnc(C4CC4)o3)n[nH]2)nc1` | 0.8894 | 3.175 | 1.084 |
| 53 | `Cc1cccnc1CN1CC[C@@](C)(O)[C@H](Oc2ccccc2)C1` | -5.961 | 7.046 | -12.53 |
| 54 | `Cc1cccc(-c2noc(CN3CC(n4cccn4)C3)n2)c1` | -60.66 | 5.548 | -3.338 |
| 55 | `COCC1CN(C(=O)c2cccn2C)Cc2cnn(C)c21` (stereo not drawn) | 0.239 | 11.58 | 0.9401 |
| 56 | `CCS(=O)(=O)N1CCCC(c2nc3ccccc3n2C(C)C)C1` (stereo not drawn) | 0.2018 | 1.815 | -6.932 |
| 57 | `Cc1cccc(CN2CC[C@H]3C[C@@H](C)O[C@@H]3C2)n1` | -2.521 | -6.694 | -2.008 |
| 58 | `CC1N(CC2CC2)C(=O)COC12CCN(Cc1nccs1)CC2` (stereo not drawn) | 3.372 | 8.387 | -3.485 |
| 59 | `O=C(c1ccco1)N1CCCC(c2cc(C(F)(F)F)[nH]n2)C1` (stereo not drawn) | -5.127 | -2.477 | -2.16 |
| 60 | `CC(Cn1cccn1)NC(=O)NCc1ccccn1` (stereo not drawn) | -3.97 | -1.173 | -1.004 |
| 61 | `Cc1ccc(S(=O)(=O)NC(=O)C2(c3ccccc3)CCC2)c(C)c1` | 3.671 | 1.488 | -5.308 |
| 62 | `COc1ccnc(N2CCc3ccc(OC(F)F)cc3C2)n1` | -7.06 | 7.025 | 1.04 |
| 63 | `CCn1c(Cn2cncn2)nnc1C1CCN(C2CCOCC2)CC1` | -1.111 | -0.5089 | 9.128 |
| 64 | `CCCN(C1CCc2ccccc2C1)S(C)(=O)=O` (stereo not drawn) | -0.6369 | -6.827 | -6.963 |
| 65 | `Cc1ccsc1CNc1ccccc1C(=O)N1CCNC(=O)C1` | 15.08 | 2.258 | -10.29 |
| 66 | `COc1ccc(OCCNC(=O)N2CCS(=O)(=O)CC2)cc1` | -4.144 | 2.105 | -19.12 |

Repeated from the top, 7 entries:

| structure | A | B | C |
|---|---|---|---|
| `c1cncc(COCc2nnn3c2CN(Cc2ccsc2)CC3)c1` | -0.8167 | 0.4938 | -14.52 |
| `CSCc1nc(CNC(=O)c2cnn(C(C)C)c2)cs1` | -6.727 | -0.7246 | 6.823 |
| `CCC(Nc1cccc(OC)c1)C(=O)NCc1nc(C)cc(=O)[nH]1` (stereo not drawn) | -0.4881 | -0.5981 | -6.913 |
| `N#CCCCn1nnnc1Cc1ccc(Br)cc1` | 1.514 | - | -0.4118 |
| `Cc1nn(C)c(C)c1C1CCCN1c1ncnc2sccc12` (stereo not drawn) | -2.969 | 4.132 | -0.2778 |
| `O=C(NC1(c2nnn(Cc3ccncc3)n2)CCCC1)c1ccccc1` | -1.421 | -12.05 | -9.209 |
| `CC1CCN(CCNC(=O)c2cncnc2C(C)C)CC1` | -3.412 | -6.329 | -13.25 |

Measurements from “University of Dundee, Small-Polar-MMV Screening Library” (2021), ChEMBL document CHEMBL3988442.